Tests used:
[1] = system: pithed rats; assay: Anti-hypertensive activity in pithed rats (blood pressure elevated by angiotensin II infusion); type: in vivo, rat
[2] = molecular target: T1, K^+ -depolarized taenia preparations from the guinea pig caecum (Cavia porcellus, UniProt O35505); conditions: M. Spedding, Naunyn-Schmiedeberg's Arch. Pharmacol., 318, 234 (1982); cited from earlier work
T1 construct: taenia preparations from the guinea pig caecum; from tissue; host or cells: guinea pig caecum, taenia (smooth muscle)

Chains of the proteins cited; added tags and fusions are not shown.
UniProt O35505, whole entry: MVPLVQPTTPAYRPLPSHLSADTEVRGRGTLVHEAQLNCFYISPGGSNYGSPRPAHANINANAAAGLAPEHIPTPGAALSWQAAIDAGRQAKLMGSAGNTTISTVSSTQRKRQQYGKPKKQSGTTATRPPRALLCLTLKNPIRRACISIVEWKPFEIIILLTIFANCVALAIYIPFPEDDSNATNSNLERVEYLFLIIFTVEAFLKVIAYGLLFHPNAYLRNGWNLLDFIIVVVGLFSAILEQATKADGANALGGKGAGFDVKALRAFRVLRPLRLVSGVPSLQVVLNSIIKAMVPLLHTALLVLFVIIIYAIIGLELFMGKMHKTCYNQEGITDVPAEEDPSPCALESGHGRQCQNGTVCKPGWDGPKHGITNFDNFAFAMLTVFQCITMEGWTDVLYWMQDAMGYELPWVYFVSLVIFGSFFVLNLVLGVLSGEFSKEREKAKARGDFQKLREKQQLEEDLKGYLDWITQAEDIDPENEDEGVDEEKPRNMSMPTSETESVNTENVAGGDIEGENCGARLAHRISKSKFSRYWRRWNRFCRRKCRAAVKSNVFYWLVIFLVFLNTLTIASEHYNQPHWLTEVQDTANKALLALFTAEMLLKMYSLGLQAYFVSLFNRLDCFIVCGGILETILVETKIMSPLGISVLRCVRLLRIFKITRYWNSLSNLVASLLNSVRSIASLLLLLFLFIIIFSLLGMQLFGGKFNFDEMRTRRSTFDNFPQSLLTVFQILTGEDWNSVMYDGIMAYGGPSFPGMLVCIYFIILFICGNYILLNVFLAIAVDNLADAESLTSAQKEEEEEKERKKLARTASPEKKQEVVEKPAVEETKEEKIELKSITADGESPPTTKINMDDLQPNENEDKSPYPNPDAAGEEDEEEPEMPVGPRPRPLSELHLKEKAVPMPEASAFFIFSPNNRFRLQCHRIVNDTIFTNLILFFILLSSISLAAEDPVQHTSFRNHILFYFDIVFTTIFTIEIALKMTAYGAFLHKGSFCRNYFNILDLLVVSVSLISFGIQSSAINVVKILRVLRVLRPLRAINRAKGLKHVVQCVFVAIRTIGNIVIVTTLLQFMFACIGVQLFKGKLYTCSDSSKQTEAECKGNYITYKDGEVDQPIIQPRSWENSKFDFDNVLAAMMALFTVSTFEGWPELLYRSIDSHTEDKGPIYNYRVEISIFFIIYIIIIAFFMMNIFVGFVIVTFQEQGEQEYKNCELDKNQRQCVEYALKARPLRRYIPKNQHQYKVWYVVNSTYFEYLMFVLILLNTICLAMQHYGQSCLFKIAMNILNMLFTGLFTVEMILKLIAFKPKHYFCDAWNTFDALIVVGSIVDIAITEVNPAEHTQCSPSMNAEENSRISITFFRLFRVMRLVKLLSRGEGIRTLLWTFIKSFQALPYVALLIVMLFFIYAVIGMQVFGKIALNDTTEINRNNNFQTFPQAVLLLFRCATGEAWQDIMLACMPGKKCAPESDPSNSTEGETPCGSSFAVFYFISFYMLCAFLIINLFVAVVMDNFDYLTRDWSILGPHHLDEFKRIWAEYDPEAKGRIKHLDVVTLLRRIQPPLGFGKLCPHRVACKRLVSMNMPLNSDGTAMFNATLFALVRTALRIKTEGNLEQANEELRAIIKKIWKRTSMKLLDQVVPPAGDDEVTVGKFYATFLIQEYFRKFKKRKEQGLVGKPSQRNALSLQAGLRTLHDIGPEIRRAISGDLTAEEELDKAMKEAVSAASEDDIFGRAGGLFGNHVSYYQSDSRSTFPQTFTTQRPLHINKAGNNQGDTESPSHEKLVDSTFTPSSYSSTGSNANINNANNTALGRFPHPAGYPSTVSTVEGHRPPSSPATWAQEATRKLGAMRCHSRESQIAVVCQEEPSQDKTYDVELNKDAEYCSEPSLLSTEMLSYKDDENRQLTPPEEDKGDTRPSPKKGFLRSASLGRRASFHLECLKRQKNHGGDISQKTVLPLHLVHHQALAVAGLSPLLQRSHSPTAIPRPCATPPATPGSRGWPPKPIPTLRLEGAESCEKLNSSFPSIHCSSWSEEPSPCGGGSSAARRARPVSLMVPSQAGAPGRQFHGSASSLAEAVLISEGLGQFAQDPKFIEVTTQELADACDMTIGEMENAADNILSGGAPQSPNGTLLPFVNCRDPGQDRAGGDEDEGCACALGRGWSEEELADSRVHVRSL

[3] = system: pentobarbitone-anesthetized rats; assay: Anti-hypertensive effect in pentobarbitone-anesthetized rats; type: in vivo, rat; conditions: for Change in diastolic blood pressure / Change in heart rate: pentobarbitone-anesthetized rats
Experimental: In this test, rats, anesthetized with a 45 to 60 mg/kg dose (i.p.) of sodium pentabarbitone, receive the test compound by injection by means of an indwelling cannula in the femoral vein. Diastolic blood pressure is measured by an indwelling catheter in the femoral artery. Heart rate is also measured.

[4] = system: conscious spontaneously hypertensive rats (stroke prone strain); assay: Anti-hypertensive effect in conscious spontaneously hypertensive rats (stroke prone strain); type: in vivo, rat
Experimental: In this test, the test compound is injected in an indwelling cannula in the femoral vein and blood pressure is measured by an indwelling catheter in the femoral artery. Heart rate is also measured.

Structure (SMILES): COC(=O)C1=C(C)NC(C)=C(C(=O)OC)C1c1ccccc1[N+](=O)[O-] [Nifedipine, 4-(2'-nitrophenyl)-2,6-dimethyl-3,5-dicarbomethoxy-1,4-dihydropyridine, reference compound]
- Change in diastolic blood pressure ([1]; 10 nmol/kg i.v.): 92.5 ± 3.5 % control
- Change in heart rate ([1]; 10 nmol/kg i.v.): 100 % control
- Change in diastolic blood pressure ([1]; 30 nmol/kg i.v.): 74.6 ± 7.9 % control
- Change in heart rate ([1]; 30 nmol/kg i.v.): 97.6 ± 1.3 % control
- Change in diastolic blood pressure ([1]; 100 nmol/kg i.v.): 56.3 ± 4.6 % control
- Change in heart rate ([1]; 100 nmol/kg i.v.): 98.2 ± 1.8 % control
- Change in diastolic blood pressure ([1]; 300 nmol/kg i.v.): 50.1 ± 1.3 % control
- Change in heart rate ([1]; 300 nmol/kg i.v.): 92.2 ± 2.7 % control
- Change in diastolic blood pressure ([1]; 1000 nmol/kg i.v.): 19.5 ± 5.9 % control
- Change in heart rate ([1]; 1000 nmol/kg i.v.): 91.9 ± 2.9 % control
- bradycardia ([1]; i.v., result in words): not prominent
- diastolic blood pressure, elevated by an infusion of angiotensin II ([1]; i.v., result in words): significantly reduced
- published pA2 [2]: 9.8±0.1
- reflex tachycardia ([3]; anesthetized rats, i.v., compared with Compound A, result in words): significantly more reflex tachycardia
- blood pressure in anesthetized rats ([3]; anesthetized rats, i.v., result in words): reduced blood pressure in anesthetized rats in a dose-dependent manner
- Change in diastolic blood pressure ([3]; 10 nmol/kg i.v.): 87.0 ± 3.7 % control
- Change in heart rate ([3]; 10 nmol/kg i.v.): 108.3 ± 2.0 % control
- Change in diastolic blood pressure ([3]; 30 nmol/kg i.v.): 86.6 ± 3.6 % control
- Change in heart rate ([3]; 30 nmol/kg i.v.): 113.5 ± 2.2 % control
- Change in diastolic blood pressure ([3]; 100 nmol/kg i.v.): 62.9 ± 3.6 % control
- Change in heart rate ([3]; 100 nmol/kg i.v.): 121.1 ± 3.3 % control
- Change in diastolic blood pressure ([3]; 300 nmol/kg i.v.): 68.3 ± 4.3 % control
- Change in heart rate ([3]; 300 nmol/kg i.v.): 118.1 ± 4.0 % control
- Change in diastolic blood pressure ([3]; 1000 nmol/kg i.v.): 54.2 ± 4.7 % control
- Change in heart rate ([3]; 1000 nmol/kg i.v.): 117.3 ± 5.2 % control
- Change in diastolic blood pressure ([3]; 3000 nmol/kg i.v.): 37.2 ± 3.1 % control
- Change in heart rate ([3]; 3000 nmol/kg i.v.): 113.0 ± 3.9 % control
- Fall in mean blood pressure ([4]; 100 nmol/kg i.v.): 7.0 ± 1.5 mm Hg
- Increase in heart rate ([4]; 100 nmol/kg i.v.): 24.0 ± 2.5 beats/min
- Fall in mean blood pressure ([4]; 300 nmol/kg i.v.): 22.5 ± 3.5 mm Hg
- Increase in heart rate ([4]; 300 nmol/kg i.v.): 57.0 ± 5.8 beats/min
- Fall in mean blood pressure ([4]; 1000 nmol/kg i.v.): 43.1 ± 3.4 mm Hg
- Increase in heart rate ([4]; 1000 nmol/kg i.v.): 112.5 ± 4.8 beats/min
- Fall in mean blood pressure ([4]; 3000 nmol/kg i.v.): 63.1 ± 5.6 mm Hg
- Increase in heart rate ([4]; 3000 nmol/kg i.v.): 125.0 ± 13.2 beats/min
- blood pressure ([4]; i.v., result in words): significantly reduced blood pressure in a dose-dependent manner
- reflex tachycardia ([4]; i.v., result in words): produced reflex tachycardia

— patent publication US4529733A, “Antihypertensive 3-furoyl-1,4-dihydropyridines” (Merrell Dow Pharmaceuticals Inc., priority 1983, dated 1985)
